Test results reported in PubChem BioAssay AID330 (DTP/NCI, 2004).
The list is a part of this screen's results and no random one: it gathers tests that were run many times, whatever their T/C, doses with no T/C, and many T/C values between a quarter and a half above the control. Further doses and runs are listed elsewhere. T/C is the treated group as % of the vehicle group. Some doses have a count of surviving animals in place of a T/C: the source holds a T/C of zero for them, seemingly a mark for toxic or unscored doses. Some survivor counts are full or nearly so, which does not show that the dose was tolerated: survival well below the control is almost never listed, so the zero probably covers shortened survival too. Counts of survivors are from the toxicity check (mostly the fifth day) where no day follows; animals may have died later. Schedule codes are those of the source, read here as Q, the interval in days (D) or hours (H), X, the number of doses. Where survival is the endpoint, the PubChem record calls one and a half times the control and up active, and a quarter to a half above the control has no call in these data; cut-offs in other NCI protocols can differ. Some doses were run more than once; their values stand side by side, smallest first.

Test system: P388 leukemia ip, CD2F1 mice, survival T/C
Assay: NCI In Vivo Anticancer Drug Screen. Data for tumor model P388 Leukemia (intraperitoneal) in CD2F1 (CDF1) mice
Settings: T/C endpoint: median survival time, higher T/C = longer survival
[1] = dose: 100.0 mg/kg/injection, schedule: Q01DX005 (ip), vehicle: saline with Tween-80
[2] = dose: 200.0 mg/kg/injection, schedule: Q01DX005 (ip), vehicle: saline with Tween-80
[3] = dose: 50.0 mg/kg/injection, schedule: Q01DX009 (ip), vehicle: saline with Tween-80

Q: `CN1C(=O)C(O)(C2=C3OCOC3=CC(=O)C2=O)c2ccccc21` (configuration not stated) was tested. Which survivor count (dose: 50.0 mg/kg/injection, schedule: Q01DX005 (ip), vehicle: saline with Tween-80) did it give?
A: The survivor count was 3 of 6.

Q: What about the survivor count [1] of the same compound?
A: Its survivor count is 0 of 6.

Q: And the survivor count [2]?
A: Its survivor count is 0 of 6.

Q: Which T/C (dose: 50.0 mg/kg/injection, schedule: Q01DX009 (ip), vehicle: saline) does the source give for `COC(=O)C(Br)C(Br)c1ccccc1` (configuration not stated) here?
A: Its T/C is 127 % of control.

Q: And the T/C (dose: 100.0 mg/kg/injection, schedule: Q01DX009 (ip), vehicle: saline)?
A: The T/C was 129 % of control.

Q: What about the T/C (dose: 200.0 mg/kg/injection, schedule: Q01DX009 (ip), vehicle: saline) of the same compound?
A: Its T/C is 132 % of control.

Q: How did the T/C (dose: 12.5 mg/kg/injection, schedule: Q04DX003 (ip), vehicle: saline) turn out when `c1cc(-c2cc3ccc(C4=NCCN4)cc3[nH]2)ccc1C1=NCCN1` was run?
A: The T/C was 148 % of control.

Q: And the T/C (dose: 25.0 mg/kg/injection, schedule: Q04DX003 (ip), vehicle: saline)?
A: Its T/C is 139 % of control.

Q: What about the survivor count (dose: 100.0 mg/kg/injection, schedule: Q04DX003 (ip), vehicle: saline) of the same compound?
A: Its survivor count is 4 of 6.

Q: Which T/C (dose: 7.5 mg/kg/injection, schedule: Q01DX005 (ip), vehicle: saline) does the source give for `CC(=O)Nc1ncnc2c1c(C(N)=O)cn2C1OC(COC(C)=O)C(OC(C)=O)C1OC(C)=O` (configuration not stated) here?
A: Its T/C is 133 % of control.

Q: What about the survivor count (dose: 15.0 mg/kg/injection, schedule: Q01DX005 (ip), vehicle: saline) of the same compound?
A: Its survivor count is 6 of 6.

Q: What about the survivor count (dose: 60.0 mg/kg/injection, schedule: Q01DX005 (ip), vehicle: saline) of the same compound?
A: The survivor count was 0 of 6.

Q: What about the survivor count (dose: 120.0 mg/kg/injection, schedule: Q01DX005 (ip), vehicle: saline) of the same compound?
A: The survivor count was 0 of 6.

Q: And the survivor count (dose: 240.0 mg/kg/injection, schedule: Q01DX005 (ip), vehicle: saline)?
A: Its survivor count is 0 of 6.

Q: Which survivor count (dose: 200.0 mg/kg/injection, schedule: Q01DX005 (ip), vehicle: Klucel (hydroxypropylcellulose) (HPC)) does the source give for `[CH3][Sn]([CH3])([S]P(=S)(c1ccccc1)c1ccccc1)[S]P(=S)(c1ccccc1)c1ccccc1` here?
A: The survivor count was 6 of 6.

Q: What does the source list for `CCOc1ccc2nc3cc(N=Nc4ccc(N)nc4N)ccc3c(N)c2c1`?
A: survivor count [1]: 3 of 6; survivor count [2]: 0 of 6

Q: With `COP(=O)(OC)C(=[N+]=[N-])c1ccccc1` as the compound, how does the survivor count (dose: 25.0 mg/kg/injection, schedule: Q01DX009 (ip), vehicle: water) read?
A: The survivor count was 6 of 6.

Q: What does the source list for `NCc1ccc(O)c(O)c1O`?
A: survivor count (dose: 400.0 mg/kg/injection, schedule: Q01DX009 (ip), vehicle: saline): 6 of 6; survivor count (dose: 600.0 mg/kg/injection, schedule: Q01DX009 (ip), vehicle: saline): 3 of 6

Q: How did the survivor count [3] turn out when `C1CC1C(=NN=C(C1CC1)C1CC1)C1CC1` was run?
A: The survivor count was 6 of 6.

Q: What does the source list for `COc1cccc2c1C(=O)c1c(O)c3c(c(O)c1C2=O)C[C@@](O)(C(C)=O)C[C@@H]3OC1CC(N(C)Cc2ccccc2)C(O)C(C)O1` (some centres not stated)?
A: T/C (dose: 3.13 mg/kg/injection, schedule: Q04DX003 (ip), vehicle: distilled water + Tween-80): 125 % of control; T/C (dose: 6.25 mg/kg/injection, schedule: Q04DX003 (ip), vehicle: distilled water + Tween-80): 136 % of control; T/C (dose: 12.5 mg/kg/injection, schedule: Q04DX003 (ip), vehicle: distilled water + Tween-80): 145 % of control; T/C (dose: 25.0 mg/kg/injection, schedule: Q04DX003 (ip), vehicle: distilled water + Tween-80): 138 % of control; T/C (dose: 50.0 mg/kg/injection, schedule: Q04DX003 (ip), vehicle: distilled water + Tween-80, evaluated on day 30): 134 % of control; T/C (dose: 50.0 mg/kg/injection, schedule: Q04DX003 (ip), vehicle: distilled water + Tween-80, evaluated on day 45): 128 % of control

Q: With `Nc1ccc(S(=O)(=O)Nc2nc(-c3ccccc3)cc(-c3ccccc3O)n2)cc1` as the compound, how does the survivor count (dose: 240.0 mg/kg/injection, schedule: Q01DX005 (ip), vehicle: saline with Tween-80) read?
A: The survivor count was 6 of 6.

Q: For `CCOC(=O)CCC(NC(=O)c1ccc(NCc2ccc3nc(N)nc(N)c3c2C)cc1)C(=O)OCC` (configuration not stated), which survivor count (dose: 0.06 mg/kg/injection, schedule: Q01DX009 (ip), vehicle: saline + alcohol) is on record?
A: Its survivor count is 6 of 6.

Q: What about the survivor count (dose: 0.11 mg/kg/injection, schedule: Q01DX009 (ip), vehicle: saline + alcohol) of the same compound?
A: The survivor count was 6 of 6.

Q: And the T/C (dose: 0.5 mg/kg/injection, schedule: Q01DX001 (ip), vehicle: saline + alcohol)?
A: Its T/C is 130 and 132 % of control.

Q: And the T/C (dose: 1.0 mg/kg/injection, schedule: Q01DX001 (ip), vehicle: saline + alcohol)?
A: The T/C was 128 and 137 % of control.

Q: Which survivor count (dose: 100.0 mg/kg/injection, schedule: Q01DX009 (ip), vehicle: saline with Tween-80) does the source give for `Clc1cc2c(nn1)Nc1ccccc1S2` here?
A: Its survivor count is 6 of 6.

Q: How did the survivor count (dose: 25.0 micromoles/kg, schedule: Q01DX005 (ip), vehicle: other) turn out when `Cc1ccc2ccc3ccc(CCl)nc3c2n1` was run?
A: Its survivor count is 4 of 6.

Q: Which survivor count [3] does the source give for `CCCCCCC(/C=C/c1ccc(Cl)c(Cl)c1)=N\Nc1ccc(Cl)cc1Cl` here?
A: The survivor count was 6 of 6.

Q: `COc1cc2c3cc1Oc1cc(ccc1O)C[C@@H]1c4c(cc(OC)c(O)c4Oc4ccc(cc4)C[C@@H]3[N+](C)(C)CC2)CC[N+]1(C)C` was tested. Which survivor count (dose: 0.5 mg/kg/injection, schedule: Q01DX009 (ip), vehicle: saline with Tween-80) did it give?
A: Its survivor count is 3 of 6.

Q: What about the survivor count (dose: 1.0 mg/kg/injection, schedule: Q01DX009 (ip), vehicle: saline with Tween-80) of the same compound?
A: The survivor count was 0 of 6.
